The other results are listed elsewhere or left out.

The chains behind the UniProt entries cited, without tags or fusion partners. Where a name states a change or a piece, a line headed by the entry shows the natural chain unless it says otherwise.
UniProt Q9BVK8: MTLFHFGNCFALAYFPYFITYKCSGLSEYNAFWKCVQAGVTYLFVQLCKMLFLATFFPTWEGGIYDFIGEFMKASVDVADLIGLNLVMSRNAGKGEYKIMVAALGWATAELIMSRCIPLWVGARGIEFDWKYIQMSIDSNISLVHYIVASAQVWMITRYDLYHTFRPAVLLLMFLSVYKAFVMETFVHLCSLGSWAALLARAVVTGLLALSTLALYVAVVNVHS
UniProt Q96CG3: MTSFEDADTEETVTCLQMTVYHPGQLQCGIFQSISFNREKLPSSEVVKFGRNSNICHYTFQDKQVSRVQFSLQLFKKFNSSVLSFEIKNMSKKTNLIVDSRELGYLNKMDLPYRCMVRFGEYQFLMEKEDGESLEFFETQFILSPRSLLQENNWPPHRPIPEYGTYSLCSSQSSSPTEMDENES
UniProt Q96AN5: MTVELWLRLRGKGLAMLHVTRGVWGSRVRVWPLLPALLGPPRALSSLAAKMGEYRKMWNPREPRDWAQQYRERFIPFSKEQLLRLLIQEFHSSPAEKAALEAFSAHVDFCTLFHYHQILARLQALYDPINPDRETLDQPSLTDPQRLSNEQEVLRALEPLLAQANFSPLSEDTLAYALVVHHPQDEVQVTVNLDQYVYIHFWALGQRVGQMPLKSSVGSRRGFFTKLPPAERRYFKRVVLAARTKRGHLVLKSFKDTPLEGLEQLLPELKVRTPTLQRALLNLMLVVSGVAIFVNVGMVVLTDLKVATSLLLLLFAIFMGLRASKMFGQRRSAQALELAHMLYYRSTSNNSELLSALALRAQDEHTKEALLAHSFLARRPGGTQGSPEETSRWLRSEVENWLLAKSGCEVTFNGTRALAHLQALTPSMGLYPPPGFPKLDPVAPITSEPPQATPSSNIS
UniProt Q8IUC6, whole entry, looked up: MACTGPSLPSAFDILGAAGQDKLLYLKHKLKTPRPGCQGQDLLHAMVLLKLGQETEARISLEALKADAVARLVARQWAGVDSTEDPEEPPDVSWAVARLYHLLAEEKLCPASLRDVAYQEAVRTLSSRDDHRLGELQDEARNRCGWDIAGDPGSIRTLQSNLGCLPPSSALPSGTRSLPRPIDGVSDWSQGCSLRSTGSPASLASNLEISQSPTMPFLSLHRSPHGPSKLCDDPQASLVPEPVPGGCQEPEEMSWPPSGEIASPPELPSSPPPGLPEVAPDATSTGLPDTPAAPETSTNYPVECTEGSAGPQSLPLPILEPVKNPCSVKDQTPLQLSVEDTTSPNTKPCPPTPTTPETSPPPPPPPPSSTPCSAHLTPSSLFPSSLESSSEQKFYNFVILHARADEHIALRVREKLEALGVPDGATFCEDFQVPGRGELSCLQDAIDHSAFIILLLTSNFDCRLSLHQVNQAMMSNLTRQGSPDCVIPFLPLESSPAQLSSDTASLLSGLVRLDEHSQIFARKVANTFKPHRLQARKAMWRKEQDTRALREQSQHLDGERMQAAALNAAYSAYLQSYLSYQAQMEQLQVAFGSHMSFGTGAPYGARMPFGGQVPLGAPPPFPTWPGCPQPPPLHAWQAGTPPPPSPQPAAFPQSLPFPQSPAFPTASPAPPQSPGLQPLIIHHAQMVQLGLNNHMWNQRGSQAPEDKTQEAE
UniProt Q9BRN9: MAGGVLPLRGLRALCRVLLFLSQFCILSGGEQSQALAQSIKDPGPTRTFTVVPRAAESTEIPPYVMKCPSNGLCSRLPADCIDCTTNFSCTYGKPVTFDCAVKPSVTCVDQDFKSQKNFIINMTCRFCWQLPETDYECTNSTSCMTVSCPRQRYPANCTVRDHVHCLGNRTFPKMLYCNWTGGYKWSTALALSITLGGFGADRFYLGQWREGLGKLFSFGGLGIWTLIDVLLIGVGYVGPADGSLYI
UniProt Q9BSA9: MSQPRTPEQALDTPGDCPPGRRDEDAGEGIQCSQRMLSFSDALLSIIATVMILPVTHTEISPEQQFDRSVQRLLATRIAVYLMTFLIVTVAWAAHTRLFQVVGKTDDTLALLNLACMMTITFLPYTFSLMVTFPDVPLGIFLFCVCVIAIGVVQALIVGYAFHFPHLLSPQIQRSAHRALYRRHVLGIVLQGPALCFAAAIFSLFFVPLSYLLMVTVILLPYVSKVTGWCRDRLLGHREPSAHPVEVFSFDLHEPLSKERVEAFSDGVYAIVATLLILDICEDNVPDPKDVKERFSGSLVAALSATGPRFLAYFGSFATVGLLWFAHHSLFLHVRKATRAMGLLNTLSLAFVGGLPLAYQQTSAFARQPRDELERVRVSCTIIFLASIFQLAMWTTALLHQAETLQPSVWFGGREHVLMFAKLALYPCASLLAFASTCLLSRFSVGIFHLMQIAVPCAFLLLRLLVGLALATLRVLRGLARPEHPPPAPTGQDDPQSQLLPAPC
UniProt Q9Y3Q3: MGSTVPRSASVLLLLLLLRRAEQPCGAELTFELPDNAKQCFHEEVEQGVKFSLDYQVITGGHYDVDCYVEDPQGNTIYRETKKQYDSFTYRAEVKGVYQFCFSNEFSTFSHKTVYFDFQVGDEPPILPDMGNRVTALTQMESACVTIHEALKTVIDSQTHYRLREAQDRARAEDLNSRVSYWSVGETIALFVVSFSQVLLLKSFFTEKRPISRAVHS
UniProt Q96B96: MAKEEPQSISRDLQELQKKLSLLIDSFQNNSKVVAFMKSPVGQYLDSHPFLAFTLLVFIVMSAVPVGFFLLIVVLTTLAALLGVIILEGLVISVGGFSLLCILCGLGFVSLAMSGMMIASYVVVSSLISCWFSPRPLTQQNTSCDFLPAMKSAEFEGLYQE
UniProt Q96IK0: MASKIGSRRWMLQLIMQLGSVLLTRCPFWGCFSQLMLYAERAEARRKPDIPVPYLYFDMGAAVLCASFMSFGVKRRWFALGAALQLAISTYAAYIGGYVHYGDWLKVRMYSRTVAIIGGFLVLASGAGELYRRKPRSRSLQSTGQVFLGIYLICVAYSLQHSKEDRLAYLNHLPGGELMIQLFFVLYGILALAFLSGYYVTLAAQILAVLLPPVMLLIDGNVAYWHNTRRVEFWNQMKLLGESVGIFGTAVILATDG
UniProt Q8WY91: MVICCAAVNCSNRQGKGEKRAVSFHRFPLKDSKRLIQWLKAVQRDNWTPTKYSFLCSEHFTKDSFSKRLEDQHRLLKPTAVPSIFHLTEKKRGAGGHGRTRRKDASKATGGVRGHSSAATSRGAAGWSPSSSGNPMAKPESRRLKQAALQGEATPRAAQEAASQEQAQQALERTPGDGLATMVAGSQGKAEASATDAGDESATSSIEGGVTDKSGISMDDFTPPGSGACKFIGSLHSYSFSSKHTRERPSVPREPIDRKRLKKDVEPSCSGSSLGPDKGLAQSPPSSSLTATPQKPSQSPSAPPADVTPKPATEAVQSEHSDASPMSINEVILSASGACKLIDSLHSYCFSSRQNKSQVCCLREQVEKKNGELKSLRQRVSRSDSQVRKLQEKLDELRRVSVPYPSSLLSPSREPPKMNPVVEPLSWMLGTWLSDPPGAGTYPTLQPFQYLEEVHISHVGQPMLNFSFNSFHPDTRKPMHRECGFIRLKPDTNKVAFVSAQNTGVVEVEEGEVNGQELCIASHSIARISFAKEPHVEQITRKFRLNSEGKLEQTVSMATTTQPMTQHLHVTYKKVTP
UniProt P07996: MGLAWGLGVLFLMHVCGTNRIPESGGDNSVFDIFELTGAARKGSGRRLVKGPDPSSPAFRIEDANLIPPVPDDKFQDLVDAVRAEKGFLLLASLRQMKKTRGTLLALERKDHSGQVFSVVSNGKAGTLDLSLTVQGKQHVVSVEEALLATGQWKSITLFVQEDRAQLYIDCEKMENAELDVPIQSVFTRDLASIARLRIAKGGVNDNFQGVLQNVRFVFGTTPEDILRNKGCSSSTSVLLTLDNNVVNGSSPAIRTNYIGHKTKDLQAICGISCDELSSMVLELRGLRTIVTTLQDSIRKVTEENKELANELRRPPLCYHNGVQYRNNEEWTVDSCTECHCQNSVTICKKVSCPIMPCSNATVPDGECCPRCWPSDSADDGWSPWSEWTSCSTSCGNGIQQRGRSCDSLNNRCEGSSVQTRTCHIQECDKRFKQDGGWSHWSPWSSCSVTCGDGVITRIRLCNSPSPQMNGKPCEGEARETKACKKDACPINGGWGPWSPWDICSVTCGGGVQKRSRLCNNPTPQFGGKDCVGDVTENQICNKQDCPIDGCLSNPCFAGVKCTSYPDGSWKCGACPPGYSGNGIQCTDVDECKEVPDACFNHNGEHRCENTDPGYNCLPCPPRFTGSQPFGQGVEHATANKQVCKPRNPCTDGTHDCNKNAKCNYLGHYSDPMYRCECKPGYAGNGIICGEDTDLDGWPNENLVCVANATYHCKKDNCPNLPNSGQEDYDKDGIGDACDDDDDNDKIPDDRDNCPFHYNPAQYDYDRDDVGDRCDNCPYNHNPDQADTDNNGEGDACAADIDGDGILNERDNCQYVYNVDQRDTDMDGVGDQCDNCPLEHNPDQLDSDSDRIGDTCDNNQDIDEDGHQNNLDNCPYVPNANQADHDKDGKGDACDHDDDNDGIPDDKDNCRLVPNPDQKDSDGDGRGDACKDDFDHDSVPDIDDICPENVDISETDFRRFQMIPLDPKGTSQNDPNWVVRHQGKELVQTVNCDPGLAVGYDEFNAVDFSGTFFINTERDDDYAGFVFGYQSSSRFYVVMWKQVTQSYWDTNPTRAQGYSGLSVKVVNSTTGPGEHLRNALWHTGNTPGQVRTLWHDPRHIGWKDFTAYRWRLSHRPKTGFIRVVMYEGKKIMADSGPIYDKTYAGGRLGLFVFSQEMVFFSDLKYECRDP
UniProt Q04726: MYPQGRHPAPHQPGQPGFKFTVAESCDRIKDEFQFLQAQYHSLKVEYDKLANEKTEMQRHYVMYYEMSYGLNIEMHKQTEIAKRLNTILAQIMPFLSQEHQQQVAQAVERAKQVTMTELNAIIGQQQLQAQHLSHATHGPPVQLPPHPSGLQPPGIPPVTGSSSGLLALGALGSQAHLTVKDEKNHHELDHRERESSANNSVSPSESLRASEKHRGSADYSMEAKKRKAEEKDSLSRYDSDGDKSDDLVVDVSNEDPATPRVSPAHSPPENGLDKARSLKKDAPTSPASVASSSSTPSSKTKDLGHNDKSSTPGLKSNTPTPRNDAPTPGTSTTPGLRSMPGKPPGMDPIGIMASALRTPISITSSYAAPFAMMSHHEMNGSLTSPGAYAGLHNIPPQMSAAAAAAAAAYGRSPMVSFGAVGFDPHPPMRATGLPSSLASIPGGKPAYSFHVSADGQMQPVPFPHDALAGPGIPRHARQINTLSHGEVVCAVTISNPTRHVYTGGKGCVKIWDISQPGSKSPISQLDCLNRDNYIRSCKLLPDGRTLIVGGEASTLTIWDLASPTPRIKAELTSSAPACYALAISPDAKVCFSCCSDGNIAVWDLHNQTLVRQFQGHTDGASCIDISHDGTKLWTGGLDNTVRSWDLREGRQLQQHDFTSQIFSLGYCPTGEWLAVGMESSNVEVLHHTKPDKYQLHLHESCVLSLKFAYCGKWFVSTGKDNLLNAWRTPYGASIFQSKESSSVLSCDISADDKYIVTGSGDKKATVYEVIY
UniProt P51854: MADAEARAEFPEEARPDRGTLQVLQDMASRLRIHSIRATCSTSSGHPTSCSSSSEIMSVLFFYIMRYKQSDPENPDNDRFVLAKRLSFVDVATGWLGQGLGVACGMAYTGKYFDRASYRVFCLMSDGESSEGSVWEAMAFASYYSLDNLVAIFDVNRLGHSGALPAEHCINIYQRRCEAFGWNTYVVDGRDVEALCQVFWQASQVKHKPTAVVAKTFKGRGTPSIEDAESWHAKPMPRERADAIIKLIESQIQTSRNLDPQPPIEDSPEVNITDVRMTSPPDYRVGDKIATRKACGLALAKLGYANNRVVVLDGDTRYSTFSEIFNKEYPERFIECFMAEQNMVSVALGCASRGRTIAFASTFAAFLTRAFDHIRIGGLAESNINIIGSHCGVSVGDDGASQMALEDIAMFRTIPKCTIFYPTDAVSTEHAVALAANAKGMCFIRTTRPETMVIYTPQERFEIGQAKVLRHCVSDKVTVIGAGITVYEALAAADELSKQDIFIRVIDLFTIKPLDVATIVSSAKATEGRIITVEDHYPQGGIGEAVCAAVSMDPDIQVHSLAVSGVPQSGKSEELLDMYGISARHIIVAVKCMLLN
UniProt O76062: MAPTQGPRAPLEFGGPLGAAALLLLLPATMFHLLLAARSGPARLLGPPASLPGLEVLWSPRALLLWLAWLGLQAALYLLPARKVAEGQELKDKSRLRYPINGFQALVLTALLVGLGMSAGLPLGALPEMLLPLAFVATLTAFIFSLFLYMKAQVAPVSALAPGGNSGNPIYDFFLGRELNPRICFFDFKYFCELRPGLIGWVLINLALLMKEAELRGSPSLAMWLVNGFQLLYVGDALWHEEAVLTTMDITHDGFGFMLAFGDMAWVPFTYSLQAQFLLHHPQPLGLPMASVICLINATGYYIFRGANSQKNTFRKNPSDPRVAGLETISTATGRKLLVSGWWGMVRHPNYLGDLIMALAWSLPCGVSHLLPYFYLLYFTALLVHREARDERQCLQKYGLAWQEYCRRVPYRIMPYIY

Compound in the assay: c1ccc([C@@H]2C[C@H]2NC2CCNCC2)cc1
The assay is described as follows: log2 fold change, soluble protein after heating vs DMSO (PISA); higher = thermal stabilisation; K562 lysate, 10 uM; active = over 0.2 and 3.5 SD of the protein, either way, in both replicates (recomputed). Put shortly: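 Following dounce homogenisation of K562 pellets in PBS pH 7.4 with 1 mM MgCl2, crude extract at 1 mg/mL protein was incubated for 30 min with 10 μM compound. Aliquots were then heated for 3 min over 48°C-58°C and pooled, NP-40 was added to 0.5% at 4°C, and soluble protein was recovered as the supernatant at 21,000xg for 90 min. Channel-sum-equalised TMTpro 16plex LC-MS/MS quantified this protein. Each value, from duplicates, is a log-two fold change in thermal stability relative to solvent controls.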
Consider TMEM147 (UniProt Q9BVK8), for which the log2 fold change is inactive: -0.04. Consider TIFA (UniProt Q96CG3), for which the log2 fold change is inactive: -0.06.

For TMEM143 (UniProt Q96AN5), the log2 fold change is inactive: -0.005. As for TKT, A0A0B4J1R6, the figure is inactive: -0.362; as for TICAM1 (UniProt Q8IUC6), inactive: 0.043; as for TM2D3 (UniProt Q9BRN9), inactive: -0.513.

As to TMEM175 (UniProt Q9BSA9), the log2 fold change is inactive: 0.257. As for TMED3 (UniProt Q9Y3Q3), the figure is inactive: 0.024.

With TMEM159 isoform 2 (UniProt Q96B96), the log2 fold change was inactive: 0.034. As for TMEM101 (UniProt Q96IK0), the figure is inactive: 0; as for THAP4 (UniProt Q8WY91), inactive: -0.053. As for TMEM134 (UniProt Q9H6X4), the figure is inactive: 0.044; as for TMEM129, inactive: 0.189; as for THBS1 (UniProt P07996), inactive: -0.007. As for TLE3 isoform 5 (UniProt Q04726), the figure is inactive: 0.199; as for TMCC1 (UniProt O94876), inactive: -0.038; as for TLK2 isoform 3 (UniProt Q86UE8), inactive: 0.097. As to TKTL1 (UniProt P51854), the log2 fold change was inactive: -0.164.

Consider TJP1 (UniProt H0Y3R8), for which the log2 fold change is inactive: 0.031.

Turning to TMEM132A isoform 2 (UniProt Q24JP5), the log2 fold change was inactive: -0.066. As for TMC7 (UniProt Q7Z402), the figure is inactive: 0.011. For TM7SF2 (UniProt O76062), the log2 fold change is inactive: -0.029. With TMEM183B (UniProt Q1AE95), the log2 fold change was inactive: 0.053. On to TMEM131 (UniProt Q92545), for which the log2 fold change was inactive: -0.144.

(Values after the supplement of paper PMC10849652.)
